Results published in US20140286952A1 (BOARD OF SUPERVISORS FOR THE UNIVERSITY OF LOUISIA SYSTEM …, published 2014).
No constants are given. Whether binding was seen depends on the method and setting. For some assays here: In cells and extracts the contact can be indirect. Some results given as binding are weak or reduced against the parent protein; the word gives no strength. Sequences can lack the tags named with a protein. One block for each molecule: values may come before it.

Amino acid sequences for entries named in this document (tags omitted).
UniProt Q07157: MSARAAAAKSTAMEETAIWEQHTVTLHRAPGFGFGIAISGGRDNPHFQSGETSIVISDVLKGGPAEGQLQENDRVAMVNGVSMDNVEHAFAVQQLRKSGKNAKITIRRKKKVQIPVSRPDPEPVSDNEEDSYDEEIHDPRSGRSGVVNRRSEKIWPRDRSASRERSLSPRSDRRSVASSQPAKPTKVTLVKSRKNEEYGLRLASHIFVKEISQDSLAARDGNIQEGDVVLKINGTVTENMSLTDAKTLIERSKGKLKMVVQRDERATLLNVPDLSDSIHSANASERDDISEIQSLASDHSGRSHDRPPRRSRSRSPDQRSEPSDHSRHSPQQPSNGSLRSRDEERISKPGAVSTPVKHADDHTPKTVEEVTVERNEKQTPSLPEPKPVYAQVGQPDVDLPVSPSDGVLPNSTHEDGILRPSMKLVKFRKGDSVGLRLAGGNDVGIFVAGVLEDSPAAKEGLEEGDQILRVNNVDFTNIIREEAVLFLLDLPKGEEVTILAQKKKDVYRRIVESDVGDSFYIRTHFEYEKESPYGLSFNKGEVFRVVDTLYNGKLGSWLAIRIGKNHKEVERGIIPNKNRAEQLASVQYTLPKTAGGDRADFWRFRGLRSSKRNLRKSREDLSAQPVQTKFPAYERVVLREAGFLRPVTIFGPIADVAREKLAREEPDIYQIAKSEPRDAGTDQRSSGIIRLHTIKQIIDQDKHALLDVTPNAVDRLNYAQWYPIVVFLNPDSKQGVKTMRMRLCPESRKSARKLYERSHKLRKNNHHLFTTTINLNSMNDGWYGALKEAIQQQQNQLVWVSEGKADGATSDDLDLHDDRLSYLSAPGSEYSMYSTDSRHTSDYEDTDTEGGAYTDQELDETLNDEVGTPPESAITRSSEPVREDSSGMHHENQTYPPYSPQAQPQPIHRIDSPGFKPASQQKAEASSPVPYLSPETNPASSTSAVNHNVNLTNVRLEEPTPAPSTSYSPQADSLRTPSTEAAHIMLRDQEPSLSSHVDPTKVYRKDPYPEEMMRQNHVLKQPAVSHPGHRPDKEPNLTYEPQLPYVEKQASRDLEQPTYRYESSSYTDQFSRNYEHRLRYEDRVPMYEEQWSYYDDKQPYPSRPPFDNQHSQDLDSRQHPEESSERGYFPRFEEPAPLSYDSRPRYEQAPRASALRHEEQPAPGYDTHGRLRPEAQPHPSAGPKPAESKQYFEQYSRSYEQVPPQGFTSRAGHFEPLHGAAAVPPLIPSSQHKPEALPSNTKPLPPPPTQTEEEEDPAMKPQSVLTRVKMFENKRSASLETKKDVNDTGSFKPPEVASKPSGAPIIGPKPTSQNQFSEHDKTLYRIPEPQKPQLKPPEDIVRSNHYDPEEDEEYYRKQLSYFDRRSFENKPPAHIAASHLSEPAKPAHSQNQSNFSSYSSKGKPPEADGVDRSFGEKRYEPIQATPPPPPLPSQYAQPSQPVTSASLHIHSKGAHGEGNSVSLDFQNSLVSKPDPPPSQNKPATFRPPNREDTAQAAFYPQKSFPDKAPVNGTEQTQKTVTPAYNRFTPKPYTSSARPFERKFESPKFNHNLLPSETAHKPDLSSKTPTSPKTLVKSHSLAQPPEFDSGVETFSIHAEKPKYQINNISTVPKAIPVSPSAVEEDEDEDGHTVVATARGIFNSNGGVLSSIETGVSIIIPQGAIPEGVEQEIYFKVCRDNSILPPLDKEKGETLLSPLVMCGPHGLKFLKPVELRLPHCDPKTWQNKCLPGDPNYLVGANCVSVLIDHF

Key:
[1] = target: T1, GST-CTR-Cwt fusion protein (GST fused to the intracellular C-terminal domain of CTRwt, aa 441-476) (human) (UniProt P30988); assay: overlay (far Western) assay: lysates on PVDF membrane incubated with GST-CTRwt fusion protein, GST immunoblot
T1 sequence (looked up): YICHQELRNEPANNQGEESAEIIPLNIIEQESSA

[2] = target: zonula occludens-1 (ZO-1), endogenous protein of prostate cancer cells and tumor specimens (UniProt Q07157); assay: GST pull-down from PC-3 cell lysates, ZO-1 immunoblot (legend of FIG. 3A)
[3] = target: zonula occludens-1 (ZO-1), endogenous protein of prostate cancer cells and tumor specimens (UniProt Q07157); assay: GST pull-down from PC-3 cell lysates, ZO-1 immunoblot
[4] = target: zonula occludens-1 (ZO-1), endogenous protein of prostate cancer cells and tumor specimens (UniProt Q07157); assay: GST pull-down from PC-3 cell lysates, ZO-1 immunoblot (told again in Example 22)
[5] = target: ZO-1wt-YFP (wild-type ZO-1 fused to yellow fluorescent protein, ZO-1wt-EYFP-N1) (UniProt Q07157); assay: acceptor photobleaching FRET microscopy in live PC-31 cells

binding [1]: binds
Molecule: ZO-1wt-MYC (wild-type ZO-1, Myc tagged at the C-terminal) (from UniProt Q07157 1-1748)

binding [2]: binds
binding [3]: binds
binding [4]: binds
Molecule: YICHQELRNEPANNQGEESAEIIPLNIIEQESSA (peptide, human, UniProt P30988 441-474, looked up, not shown: a dimerising Fc or GST) [GST-CTR-Cwt fusion protein (GST fused to the intracellular C-terminal domain of CTRwt, aa 441-476)]

binding [5]: binds
B1: CTRwt-CFP (wild-type calcitonin receptor fused to cyan fluorescent protein, CTRwt-ECFP-N1) (receptor, human, UniProt P30988 25-474, looked up, not shown: large carriers)
chain: AFSNQTYPTIEPKPFLYVVGRKKMMDAQYKCYDRMQQLPAYQGEGPYCNRTWDGWLCWDDTPAGVLSYQFCPDYFPDFDPSEKVTKYCDEKGVWFKHPENNRTWSNYTMCNAFTPEKLKNAYVLYYLAIVGHSLSIFTLVISLGIFVFFRSLGCQRVTLHKNMFLTYILNSMIIIIHLVEVVPNGELVRRDPVSCKILHFFHQYMMACNYFWMLCEGIYLHTLIVVAVFTEKQRLRWYYLLGWGFPLVPTTIHAITRAVYFNDNCWLSVETHLLYIIHGPVMAALVVNFFFLLNIVRVLVTKMRETHEAESHMYLKAVKATMILVPLLGIQFVVFPWRPSNKMLGKIYDYVMHSLIHFQGFFVATIYCFCNNEVQTTVKRQWAQFKIQWNQRWGRRPSNRSARAAAAAAEAGDIPIYICHQELRNEPANNQGEESAEIIPLNIIEQESSA
